# Some results were stated once for a whole list of compounds, not compound by compound.
# By UniProt entry, the sequences of proteins in these tests, tags left out. Where a name states a change or a piece, a line headed by the entry shows the natural chain unless it says otherwise.
# UniProt P97477: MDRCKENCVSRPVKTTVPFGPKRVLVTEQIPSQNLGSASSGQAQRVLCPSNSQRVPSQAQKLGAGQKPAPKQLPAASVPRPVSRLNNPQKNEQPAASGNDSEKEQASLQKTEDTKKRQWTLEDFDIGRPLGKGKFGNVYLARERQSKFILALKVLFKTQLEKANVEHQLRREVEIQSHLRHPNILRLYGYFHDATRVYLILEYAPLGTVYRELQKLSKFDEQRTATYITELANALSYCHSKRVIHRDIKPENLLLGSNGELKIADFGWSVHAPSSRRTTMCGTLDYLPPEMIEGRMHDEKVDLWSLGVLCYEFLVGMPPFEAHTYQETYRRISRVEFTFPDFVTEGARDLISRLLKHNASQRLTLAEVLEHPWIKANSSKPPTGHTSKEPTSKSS
# Molecular target: T1, recombinant murine Aurora A enzyme (Mus musculus, UniProt P97477)
# T1 construct: hexahistidine (His6) (N); made in house; host or cells: insect cells, baculovirus (Bac-to-Bac, Invitrogen)
# Assay: Aurora A DELFIA Kinase Assay
# Assay type: biochemical
# Settings: 250 μM ATP, threshold less than or equal to 1.0 μM
# Text: Recombinant mouse Aurora A with an amino-terminus hexahistidine tag (His-Aurora A) was expressed using a standard baculovirus vector and insect cell expression system (Bac-to-Bac®, Invitrogen).
# Soluble, recombinant mouse Aurora A was purified from insect cells using Ni-NTA agarose (Qiagen) as described by the manufacturer and further purified over an S75 size exclusion column (Amersham Pharmacia Biotech).
# Aurora A DELFIA® Kinase Assay
# The enzymatic reaction mixture, with and without Aurora inhibitors, was incubated for 15 minutes at room temperature before termination with 100 μL of stop buffer (1% BSA, 0.05% Surfact-AMPS-20, and 100 mM EDTA). A total of 100 μL of the enzyme reaction mixture was transferred to wells of a Neutravidin-coated 96-well plate (Pierce) and incubated at room temperature for 30 minutes. The wells were washed with wash buffer (25 mM Tris, 150 mM sodium chloride, and 0.1% Tween 20) and incubated for 1 hour with 100 μL of antibody reaction mixture containing 1% BSA, 0.05% Surfact-AMPS-20, anti-phospho-PKA rabbit polyclonal antibody (1:2000, New England Biolabs), and europium labeled anti-rabbit IgG (1:2000, Perkin Elmer). The wells were washed and then the bound europium was liberated using 100 μL of Enhancement Solution (Perkin Elmer). Quantification of europium was done using a Wallac™ EnVision (Perkin Elmer).
smiles,measurement,value
"CC1N=C(c2c(F)cccc2F)c2cc(Cl)ccc2-c2nc(Nc3ccc(C(=O)O)cc3)ncc21 (stereo not shown) [Compound I-371, 4-{[9-chloro-7-(2,6-difluorophenyl)-5-methyl-5H-pyrimido[5,4-d][2]benzazepin-2-yl]amino}benzoic acid]",IC50,≤ 1000 nM

# From patent US9102678B2, “Compounds and methods for inhibiting mitotic progression” (Millennium Pharmaceuticals, Inc., priority 2004, dated 2015)
